## Primary screen of a compound library

T. brucei: 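Whole-parasite assay of Trypanosoma brucei over 72 hours; the read-out is not stated. Concentration: 30 µM. Direction is inferred from retests: higher values go with stronger inhibition. Values scatter widely below zero; nearly all retest evidence comes from the higher of the two concentrations used. Of about 64,000 compounds tested this way, about 940 (1.5%) reached 50% or more in at least one test.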
Leishmania in macrophages: 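Cell assay of Leishmania donovani living inside macrophages; the read-out is not stated. Compounds at 30 µM. The record gives no direction; compounds that gave an IC50 in retests scored well above the rest, so higher reads as stronger inhibition. About 69,000 compounds were tested under these conditions; 1.5% (about 1,000) showed 50% or more at least once.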

Results are given as percent effect.
How 0% and 100% were set is not recorded. Most values in the screen are low, and negative values occur.
Compounds were drawn at random from those tested, without regard to their results.
Two or more numbers in one place are separate tests of the same structure; such repeats can differ widely.
A dash means the value is not listed here; it may have been measured.

- O=C(Cc1ccc(F)c(Br)c1)NC1CCN(CC(F)F)CC1 : T. brucei: -1.347%; Leishmania in macrophages: 5.468%
- Cc1noc(C)c1CC(=O)NCc1ccnc(OCC(F)(F)F)c1 : T. brucei: 7.29%; Leishmania in macrophages: 28.51%
- CC(=O)N1CC2(CCNCC2)c2cc(Cl)ccc21.Cl : T. brucei: -38.99%; Leishmania in macrophages: 8.219%
- Cc1cc(C)n(CC2CCCN2Cc2ncc(C(C)(C)C)o2)n1 (stereo unspecified) : T. brucei: 1.727%; Leishmania in macrophages: -3.681%
- [H][C@@]12CCN(C(C)=O)C[C@@]1([H])[C@H](C(=O)N1CCCCO1)CCO2 : T. brucei: 33.25%; Leishmania in macrophages: 18.99%
- NC(=O)Cc1ccc(OCc2noc(C(=O)N3CCCC3)n2)cc1 : T. brucei: -8.501%; Leishmania in macrophages: -24.3%
- O=C(CCCOc1ccccc1F)Nc1cc[nH]n1 : T. brucei: 7.065%; Leishmania in macrophages: 1.863%
- CCN(CC)CC[C@H]1CN(C(=O)c2ccc(F)cc2)CC[C@H]1CC(=O)O : T. brucei: -16.48%; Leishmania in macrophages: 4.747%
- O=C(COCc1ccccc1Cl)N1CCN(c2ccc(Br)cn2)CC1 : T. brucei: 6.228%; Leishmania in macrophages: 16.88%
- COc1ccc(F)cc1C[S+]([O-])CC(=O)NCc1ccccc1C (stereo unspecified) : T. brucei: -37.93%; Leishmania in macrophages: -22.09%
- O=C(O)C(F)(F)F.O=C(O)C(F)(F)F.[H][C@@]12COC[C@]1(CNC(=O)N1CCCC1)CN(Cc1cccc(C)n1)C2 : T. brucei: 12.14%; Leishmania in macrophages: -6.563%
- Cc1cnc(N2CCC(c3ccccc3)CC2)nc1-c1ccnn1C : T. brucei: -24.64%; Leishmania in macrophages: -20.04%
- COc1ncnc2c1CCN(C(=O)Cc1cccc(F)c1)CC2 : T. brucei: -54%; Leishmania in macrophages: 7.541%
- CO[C@@H]1CO[C@@]2(CCCN(C(=O)C3CC=CC3)C2)C1 : T. brucei: -62.01%; Leishmania in macrophages: 1.932%
- COCC(=O)N1CCCN(c2ncnc3c2CCNCC3)CC1 : T. brucei: -23.77%; Leishmania in macrophages: 11.2%
- CNC(=O)CN1CCN(C(=O)Nc2ccc(Cl)cc2F)CC1 : T. brucei: -24.82%; Leishmania in macrophages: 18.45%
- Cc1nc(COc2ccc(OC3CCCCNC3=O)cc2)oc1C (stereo unspecified) : T. brucei: -24.36%; Leishmania in macrophages: 7.395%
- CC(C)Sc1ccc(C(C)Nc2nc3c(cnn3C)c(=O)[nH]2)cc1 (stereo unspecified) : T. brucei: 62.45%; Leishmania in macrophages: 9.757%
- Cc1ccc(CN(CCN(C)C)C(=O)Nc2ccc(C)c(C#N)c2)s1 : T. brucei: -18.52%; Leishmania in macrophages: 19.43%
- COCc1nnc(C(=O)N2CCCC(O)C2)o1 (stereo unspecified) : T. brucei: -25.71%; Leishmania in macrophages: -29%
- [H][C@@]12CN(C(=O)c3ccnnc3)C[C@]1([H])C(=O)N(Cc1cccc(C)c1)C2 : T. brucei: -13.49%; Leishmania in macrophages: 4.769%
- Cc1cc(C(=O)NC2CCCN(c3ccccc3)C2=O)on1 (stereo unspecified) : T. brucei: 3.541%; Leishmania in macrophages: 15.8%
- Cc1nnc(NC(=O)NCc2cc(F)cc(F)c2)s1 : T. brucei: -22.61%; Leishmania in macrophages: -5.635%
- CC(C)c1noc(CNc2cccc(-c3nnnn3C)c2)n1 : T. brucei: -17.16%; Leishmania in macrophages: -9.69%
- Cc1cc2nc(C(C)C)cc(NCCc3ccncc3)n2n1 : T. brucei: 3.393%; Leishmania in macrophages: -39.18%
- CN(C)CC1(O)CCN(S(=O)(=O)c2ccc(Cl)cc2)C1 (stereo unspecified) : T. brucei: 2.875%; Leishmania in macrophages: 11.57% & 21.7%
- Cc1ccc(C2CCCN2S(=O)(=O)N(C)CCc2ccccn2)o1 (stereo unspecified) : Leishmania in macrophages: -4.477%
- Cc1cccnc1N1CCN(C(=O)CCc2ccccn2)CC1 : T. brucei: -13.21%; Leishmania in macrophages: -34.92%
- Cc1ccc(C(CNCc2cccnc2)N2CCOCC2)s1 (stereo unspecified) : T. brucei: -19.37%; Leishmania in macrophages: 10.07%
- CCn1cc(S(=O)(=O)NC(=O)CCc2c[nH]c3ccccc23)cn1 : T. brucei: -24.85%; Leishmania in macrophages: -3.33%
- O=C(Cc1cccc(F)c1F)NS(=O)(=O)c1ccc(Cl)cc1F : T. brucei: -80.49%; Leishmania in macrophages: 4.935%
- CN1CCOC(CNC(=O)C2(c3cccc(C(F)(F)F)c3)CCCC2)C1 (stereo unspecified) : Leishmania in macrophages: 32.6%
- COC1COC2(CCN(C(=O)c3ccccc3F)CC2)C1 (stereo unspecified) : T. brucei: -57.28%; Leishmania in macrophages: 35.35%
- CN(C(=O)c1ccc(C2CCCO2)s1)C1CCS(=O)(=O)CC1 (stereo unspecified) : T. brucei: -40.56%; Leishmania in macrophages: -26.67%
- Cc1nc(C)n(CC2CCCN2CC(=O)Nc2cc(C(C)C)no2)n1 (stereo unspecified) : T. brucei: 16.87%; Leishmania in macrophages: -15.34%
- NS(=O)(=O)c1ccc(F)c(C(=O)NCCSC2CCCCC2)c1 : T. brucei: -20.73%; Leishmania in macrophages: 3.143%
- Cc1noc(C)c1CN(C)CC(c1cccs1)N1CCOCC1 (stereo unspecified) : T. brucei: -21.69%; Leishmania in macrophages: 10.17%
- COc1ccc(NC(=O)c2nc(C)sc2C)cn1 : T. brucei: 0.2995%; Leishmania in macrophages: 7.071%
- NC(=O)[C@H]1CCCN(c2nccc(-c3c[nH]nc3-c3cccnc3)n2)C1 : T. brucei: -17.38%; Leishmania in macrophages: 5.981% & 7.216%
- Cn1cc(C2CC(=O)NC23CCN(C(=O)Cc2ccccn2)CC3)cn1.O=C(O)C(F)(F)F (stereo unspecified) : T. brucei: -9.844%; Leishmania in macrophages: 2.376%
- Cc1nc(CN2CCC3(CCCN(Cc4cnn(C)c4)C3)C2=O)cs1.O=C(O)C(F)(F)F.O=C(O)C(F)(F)F (stereo unspecified) : T. brucei: 5.142%; Leishmania in macrophages: -8.702%
- Cc1cc(NC(=O)NCCCSc2nncn2C)no1 : T. brucei: -16.29%; Leishmania in macrophages: 17.43%
- CNc1cc(CNC(=O)c2cccnc2)nc(-c2ccncc2)n1 : T. brucei: 4.23%; Leishmania in macrophages: 28.97% & 26.46%

For reference, 6 entries once more:

structure,T. brucei,Leishmania in macrophages
Cc1ccc(C2CCCN2S(=O)(=O)N(C)CCc2ccccn2)o1 (stereo unspecified),-,-4.477
CC(C)Sc1ccc(C(C)Nc2nc3c(cnn3C)c(=O)[nH]2)cc1 (stereo unspecified),62.45,9.757
CN(C)CC1(O)CCN(S(=O)(=O)c2ccc(Cl)cc2)C1 (stereo unspecified),2.875,11.57 & 21.7
CC(=O)N1CC2(CCNCC2)c2cc(Cl)ccc21.Cl,-38.99,8.219
CCn1cc(S(=O)(=O)NC(=O)CCc2c[nH]c3ccccc23)cn1,-24.85,-3.33
Cc1cnc(N2CCC(c3ccccc3)CC2)nc1-c1ccnn1C,-24.64,-20.04

The values are deposited in ChEMBL (CHEMBL3988442, “University of Dundee, Small-Polar-MMV Screening Library” (2021)).